# Assay results published in the supplement of paper PMC12067093, “Discovery and optimisation of a covalent ligand for TRIM25 and its application to targeted protein ubiquitination” (Chemical Science, 2025).
# By UniProt entry, the sequences of proteins in these tests, tags left out. Where a name states a change or a piece, a line headed by the entry shows the natural chain unless it says otherwise.
# UniProt Q9HBH1: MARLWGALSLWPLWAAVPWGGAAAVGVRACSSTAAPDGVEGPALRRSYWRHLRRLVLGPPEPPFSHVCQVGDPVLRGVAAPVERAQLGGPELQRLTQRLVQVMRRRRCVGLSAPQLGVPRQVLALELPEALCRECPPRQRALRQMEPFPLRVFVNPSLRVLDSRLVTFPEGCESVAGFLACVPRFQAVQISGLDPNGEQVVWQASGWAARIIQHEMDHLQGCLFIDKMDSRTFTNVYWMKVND
# UniProt Q29RF7: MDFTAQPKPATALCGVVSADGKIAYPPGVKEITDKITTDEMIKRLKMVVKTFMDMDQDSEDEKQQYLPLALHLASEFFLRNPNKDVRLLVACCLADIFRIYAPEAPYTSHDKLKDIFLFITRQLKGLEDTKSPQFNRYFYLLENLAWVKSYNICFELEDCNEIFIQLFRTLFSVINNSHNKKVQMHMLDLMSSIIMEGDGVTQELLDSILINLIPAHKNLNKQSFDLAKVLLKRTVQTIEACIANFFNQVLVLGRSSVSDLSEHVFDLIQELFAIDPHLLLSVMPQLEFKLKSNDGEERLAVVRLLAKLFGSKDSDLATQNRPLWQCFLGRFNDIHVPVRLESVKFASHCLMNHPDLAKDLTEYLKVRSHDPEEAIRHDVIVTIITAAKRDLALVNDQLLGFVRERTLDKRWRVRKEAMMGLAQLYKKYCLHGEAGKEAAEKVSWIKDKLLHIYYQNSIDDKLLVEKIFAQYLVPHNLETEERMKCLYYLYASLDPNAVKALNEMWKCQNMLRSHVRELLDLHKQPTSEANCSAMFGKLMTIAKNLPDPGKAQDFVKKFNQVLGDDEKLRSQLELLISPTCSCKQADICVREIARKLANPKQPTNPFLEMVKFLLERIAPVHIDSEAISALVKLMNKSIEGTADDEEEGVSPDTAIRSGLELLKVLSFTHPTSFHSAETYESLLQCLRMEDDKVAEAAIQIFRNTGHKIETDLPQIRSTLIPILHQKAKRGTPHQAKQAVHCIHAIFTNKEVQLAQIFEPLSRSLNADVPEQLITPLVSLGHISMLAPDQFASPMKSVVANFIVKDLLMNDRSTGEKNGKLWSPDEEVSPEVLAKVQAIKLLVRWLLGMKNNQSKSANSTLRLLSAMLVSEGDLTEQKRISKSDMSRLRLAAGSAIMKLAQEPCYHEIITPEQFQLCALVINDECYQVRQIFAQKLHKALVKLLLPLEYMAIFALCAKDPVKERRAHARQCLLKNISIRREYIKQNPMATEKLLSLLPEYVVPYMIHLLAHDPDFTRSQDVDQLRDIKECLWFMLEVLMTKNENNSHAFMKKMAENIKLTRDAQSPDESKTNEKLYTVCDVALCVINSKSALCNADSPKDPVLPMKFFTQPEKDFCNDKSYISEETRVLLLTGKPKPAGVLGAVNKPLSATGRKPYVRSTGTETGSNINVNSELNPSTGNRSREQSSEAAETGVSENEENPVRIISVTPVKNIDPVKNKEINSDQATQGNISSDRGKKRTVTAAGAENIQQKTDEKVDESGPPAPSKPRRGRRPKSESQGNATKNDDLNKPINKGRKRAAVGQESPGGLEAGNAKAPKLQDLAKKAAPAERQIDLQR
# UniProt Q6P996: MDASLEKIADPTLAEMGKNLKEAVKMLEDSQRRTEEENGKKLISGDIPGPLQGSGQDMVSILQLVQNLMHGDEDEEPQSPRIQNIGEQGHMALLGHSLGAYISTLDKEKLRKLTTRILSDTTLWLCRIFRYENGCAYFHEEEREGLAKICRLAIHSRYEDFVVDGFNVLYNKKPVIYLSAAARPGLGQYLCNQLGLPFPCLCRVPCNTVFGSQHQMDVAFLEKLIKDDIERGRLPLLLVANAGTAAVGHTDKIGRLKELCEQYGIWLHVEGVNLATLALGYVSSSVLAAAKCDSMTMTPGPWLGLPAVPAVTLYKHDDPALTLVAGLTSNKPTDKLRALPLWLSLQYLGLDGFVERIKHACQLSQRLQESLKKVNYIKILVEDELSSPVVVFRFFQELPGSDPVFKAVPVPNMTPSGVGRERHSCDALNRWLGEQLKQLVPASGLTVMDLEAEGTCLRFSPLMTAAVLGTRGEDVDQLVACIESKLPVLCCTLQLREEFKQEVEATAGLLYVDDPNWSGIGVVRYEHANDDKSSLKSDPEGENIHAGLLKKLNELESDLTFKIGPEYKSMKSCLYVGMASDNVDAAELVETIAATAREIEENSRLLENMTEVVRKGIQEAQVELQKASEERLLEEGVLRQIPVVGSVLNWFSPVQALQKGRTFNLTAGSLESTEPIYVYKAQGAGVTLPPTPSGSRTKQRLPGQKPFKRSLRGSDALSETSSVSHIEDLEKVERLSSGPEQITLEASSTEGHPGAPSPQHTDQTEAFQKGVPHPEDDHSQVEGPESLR
# UniProt O95613: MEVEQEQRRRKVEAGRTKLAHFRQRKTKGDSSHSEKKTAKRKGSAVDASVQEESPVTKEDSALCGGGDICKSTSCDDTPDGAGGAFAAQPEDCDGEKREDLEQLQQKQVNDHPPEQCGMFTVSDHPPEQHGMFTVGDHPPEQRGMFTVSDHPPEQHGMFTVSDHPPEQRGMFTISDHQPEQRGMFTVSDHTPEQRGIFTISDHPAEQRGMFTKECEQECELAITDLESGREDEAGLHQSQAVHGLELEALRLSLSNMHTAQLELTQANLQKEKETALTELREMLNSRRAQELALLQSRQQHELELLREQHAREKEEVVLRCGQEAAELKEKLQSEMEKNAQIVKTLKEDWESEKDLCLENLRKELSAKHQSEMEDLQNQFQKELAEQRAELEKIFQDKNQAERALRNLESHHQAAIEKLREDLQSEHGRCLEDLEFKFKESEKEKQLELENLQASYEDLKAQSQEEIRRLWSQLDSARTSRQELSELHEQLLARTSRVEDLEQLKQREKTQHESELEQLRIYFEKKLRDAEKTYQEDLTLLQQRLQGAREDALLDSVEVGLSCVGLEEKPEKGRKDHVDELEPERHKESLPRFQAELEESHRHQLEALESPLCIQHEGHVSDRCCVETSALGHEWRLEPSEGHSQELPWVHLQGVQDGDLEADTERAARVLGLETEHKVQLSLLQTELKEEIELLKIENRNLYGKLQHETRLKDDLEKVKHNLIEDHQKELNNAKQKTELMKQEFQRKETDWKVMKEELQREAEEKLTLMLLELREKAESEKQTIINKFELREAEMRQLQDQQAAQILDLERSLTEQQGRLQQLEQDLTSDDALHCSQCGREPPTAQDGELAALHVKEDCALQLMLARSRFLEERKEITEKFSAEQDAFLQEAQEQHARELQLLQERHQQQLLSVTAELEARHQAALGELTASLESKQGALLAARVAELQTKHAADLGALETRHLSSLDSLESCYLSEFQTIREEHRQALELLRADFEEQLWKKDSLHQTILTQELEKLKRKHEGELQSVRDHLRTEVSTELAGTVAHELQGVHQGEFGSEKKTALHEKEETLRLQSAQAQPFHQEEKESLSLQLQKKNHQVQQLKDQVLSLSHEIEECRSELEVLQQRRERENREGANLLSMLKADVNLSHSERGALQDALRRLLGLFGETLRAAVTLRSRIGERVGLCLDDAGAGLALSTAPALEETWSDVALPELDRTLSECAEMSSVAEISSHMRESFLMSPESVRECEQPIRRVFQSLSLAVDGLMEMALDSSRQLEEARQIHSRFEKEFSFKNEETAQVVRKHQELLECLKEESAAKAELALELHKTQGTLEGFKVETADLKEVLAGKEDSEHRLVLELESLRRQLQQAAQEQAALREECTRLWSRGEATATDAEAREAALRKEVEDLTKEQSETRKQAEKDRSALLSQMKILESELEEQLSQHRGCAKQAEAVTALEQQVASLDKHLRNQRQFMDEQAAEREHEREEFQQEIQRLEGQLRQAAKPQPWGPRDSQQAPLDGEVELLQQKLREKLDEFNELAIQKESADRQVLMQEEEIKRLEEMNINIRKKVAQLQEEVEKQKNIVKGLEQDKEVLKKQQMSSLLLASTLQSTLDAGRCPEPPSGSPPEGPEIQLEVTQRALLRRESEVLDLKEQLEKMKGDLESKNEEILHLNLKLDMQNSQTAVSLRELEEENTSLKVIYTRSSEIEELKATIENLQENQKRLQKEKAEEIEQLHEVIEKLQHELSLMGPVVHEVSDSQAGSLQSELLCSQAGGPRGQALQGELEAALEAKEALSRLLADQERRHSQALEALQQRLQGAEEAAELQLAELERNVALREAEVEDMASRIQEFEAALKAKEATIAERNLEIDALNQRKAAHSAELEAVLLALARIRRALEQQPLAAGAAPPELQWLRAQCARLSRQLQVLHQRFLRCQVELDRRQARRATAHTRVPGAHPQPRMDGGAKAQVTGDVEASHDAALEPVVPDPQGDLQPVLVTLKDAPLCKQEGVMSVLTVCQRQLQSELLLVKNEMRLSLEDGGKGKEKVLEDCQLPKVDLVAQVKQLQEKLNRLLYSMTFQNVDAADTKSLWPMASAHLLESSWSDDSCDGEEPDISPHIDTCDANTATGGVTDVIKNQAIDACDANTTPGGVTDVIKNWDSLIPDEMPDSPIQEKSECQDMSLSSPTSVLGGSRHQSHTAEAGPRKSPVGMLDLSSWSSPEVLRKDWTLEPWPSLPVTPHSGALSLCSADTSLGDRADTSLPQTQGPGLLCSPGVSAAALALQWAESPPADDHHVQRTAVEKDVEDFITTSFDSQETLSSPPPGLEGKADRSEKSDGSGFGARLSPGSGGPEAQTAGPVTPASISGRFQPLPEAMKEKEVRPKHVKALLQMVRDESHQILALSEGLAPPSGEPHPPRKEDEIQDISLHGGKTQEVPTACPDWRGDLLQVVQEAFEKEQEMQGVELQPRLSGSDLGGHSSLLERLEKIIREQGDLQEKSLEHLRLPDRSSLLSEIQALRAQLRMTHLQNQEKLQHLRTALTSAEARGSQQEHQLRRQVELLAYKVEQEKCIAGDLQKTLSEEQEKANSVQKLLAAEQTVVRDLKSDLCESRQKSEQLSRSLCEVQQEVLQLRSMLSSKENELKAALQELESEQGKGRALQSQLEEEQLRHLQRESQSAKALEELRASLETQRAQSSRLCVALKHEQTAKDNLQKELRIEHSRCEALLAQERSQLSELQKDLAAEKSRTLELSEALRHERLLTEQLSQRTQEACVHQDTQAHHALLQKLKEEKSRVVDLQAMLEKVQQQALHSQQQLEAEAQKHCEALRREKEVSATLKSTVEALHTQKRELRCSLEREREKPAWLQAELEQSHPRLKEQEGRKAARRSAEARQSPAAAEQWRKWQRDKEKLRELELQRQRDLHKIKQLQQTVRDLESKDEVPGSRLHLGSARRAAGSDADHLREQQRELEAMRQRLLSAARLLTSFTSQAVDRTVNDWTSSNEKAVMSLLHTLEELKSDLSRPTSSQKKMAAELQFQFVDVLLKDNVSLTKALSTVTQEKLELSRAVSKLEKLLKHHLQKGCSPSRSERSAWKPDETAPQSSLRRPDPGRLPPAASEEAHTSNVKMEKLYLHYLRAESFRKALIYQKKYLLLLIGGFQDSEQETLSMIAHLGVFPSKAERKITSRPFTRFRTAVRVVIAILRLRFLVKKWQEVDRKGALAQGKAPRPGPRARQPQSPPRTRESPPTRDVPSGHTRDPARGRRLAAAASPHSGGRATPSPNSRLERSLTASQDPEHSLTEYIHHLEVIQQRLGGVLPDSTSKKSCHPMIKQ
# UniProt P40424: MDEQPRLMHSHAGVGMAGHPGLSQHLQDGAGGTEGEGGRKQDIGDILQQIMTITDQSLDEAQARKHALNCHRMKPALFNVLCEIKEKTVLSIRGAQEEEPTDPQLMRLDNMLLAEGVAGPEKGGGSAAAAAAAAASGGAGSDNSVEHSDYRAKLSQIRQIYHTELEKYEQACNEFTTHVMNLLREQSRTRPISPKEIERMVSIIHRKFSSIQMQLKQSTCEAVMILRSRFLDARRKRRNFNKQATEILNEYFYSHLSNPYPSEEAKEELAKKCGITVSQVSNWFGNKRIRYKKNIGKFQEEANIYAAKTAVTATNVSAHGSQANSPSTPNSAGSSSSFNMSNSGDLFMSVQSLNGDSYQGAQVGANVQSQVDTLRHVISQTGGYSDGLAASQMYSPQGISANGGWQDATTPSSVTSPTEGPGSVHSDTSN
# UniProt Q15084: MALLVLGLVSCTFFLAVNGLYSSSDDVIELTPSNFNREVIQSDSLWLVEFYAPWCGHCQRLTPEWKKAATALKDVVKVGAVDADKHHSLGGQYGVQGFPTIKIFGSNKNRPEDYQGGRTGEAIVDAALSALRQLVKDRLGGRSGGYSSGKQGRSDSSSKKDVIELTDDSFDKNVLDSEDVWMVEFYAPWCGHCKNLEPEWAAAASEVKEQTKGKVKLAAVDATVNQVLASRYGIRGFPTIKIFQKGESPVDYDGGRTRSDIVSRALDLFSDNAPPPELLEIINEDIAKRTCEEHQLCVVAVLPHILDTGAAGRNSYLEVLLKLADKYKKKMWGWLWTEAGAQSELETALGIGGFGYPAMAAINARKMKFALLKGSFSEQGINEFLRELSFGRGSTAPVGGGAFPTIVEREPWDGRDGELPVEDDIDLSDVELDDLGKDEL
# The list shows a part of the results.
# Compound: CC1Cc2ccccc2N1C(=O)C1CCCN(C1)C(=O)CCl (mixture of isomers) [TRIM25 ligand 11 (diastereomer mixture)]
# Test: probe-labelled cysteine peptide fold change vs DMSO (competition) (log2 fold change); higher = less target engagement (more negative = stronger competition)
# Details: 10 µM; THP-1; incubation time: 4 h
# 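Note: competitive chemoproteomic profiling in live THP-1 cells with an iodoacetamide desthiobiotin (IA-DTB) probe, comparing probe-labelled peptide intensities in compound-treated cells against DMSO-treated controls.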
row,Target,probe-labelled cysteine peptide fold change
1,PDF_Q9HBH1_172_LVTFPEGCESVAGFLACVPR (UniProt Q9HBH1),0.391
2,PCCA_P05165_363_LQVEHPVTECITGLDLVQEMIR (UniProt P05165),0.0511
3,PCGF5_Q86SE9_34_GYLIKPTTVTECLHTFCK (UniProt Q86SE9),-0.053
4,PDLIM1_O00151_283_HPECYVCTDCGTNLK (UniProt O00151),0.0453
5,PDHA1_P08559_261_GDFIPGLRVDGMDILCVR (UniProt P08559),-0.504
6,PDLIM2_Q96JY6_334_GHFWVGDELYCEK (UniProt Q96JY6),0.0694
7,PDS5A_Q29RF7_742_QAVHCIHAIFTNK (UniProt Q29RF7),0.0829
8,PDS5A_Q29RF7_1093_SALCNADSPKDPVLPMK (UniProt Q29RF7),-0.0248
9,PDLIM7_Q9NR12_282+285_TPVCHQCHK (UniProt Q9NR12),0.0973
10,PDF_Q9HBH1_68_LVLGPPEPPFSHVCQVGDPVLR (UniProt Q9HBH1),0.00596
11,PDHA1_P08559_222_LPCIFICENNR (UniProt P08559),0.147
12,PDXDC1_Q6P996_361_HACQLSQR (UniProt Q6P996),0.0732
13,PATZ1_Q9HBE1_463_SHLACHEDK (UniProt Q9HBE1),-0.0651
14,PCBD2_Q9H0N5_109_VQITLTSHDCGELTKK (UniProt Q9H0N5),-0.138
15,PDP1_Q9P0J1_132_SAATCLQTR (UniProt Q9P0J1),0.0209
16,PDS5A_Q29RF7_14_PATALCGVVSADGK (UniProt Q29RF7),-0.00487
17,PDE12_Q6L8Q7_268+277_ELESVCVVEAGPGTCTFDHR (UniProt Q6L8Q7),0.152
18,PCNA_P12004_135_LMDLDVEQLGIPEQEYSCVVK (UniProt P12004),-0.113

row,Target,probe-labelled cysteine peptide fold change
1,PDHA1_P08559_41_KCDLHR (UniProt P08559),-0.0144
2,PDS5A_Q29RF7_350_FASHCLMNHPDLAK (UniProt Q29RF7),-0.055
3,PDS5B_Q9NTI5_943_LPLEYMAICALCAK (UniProt Q9NTI5),0.336
4,PCNT_O95613_2059_VLEDCQLPK (UniProt O95613),-0.0791
5,PBX1_P40424_172_YEQACNEFTTHVMNLLR (UniProt P40424),-0.0704
6,PARP1_P09874_908_SANYCHTSQGDPIGLILLGEVALGNMYELK (UniProt P09874),-0.146
7,PARP1_P09874_429_ASLCISTK (UniProt P09874),-0.00943
8,PDHA1_P08559_181_NFYGGNGIVGAQVPLGAGIALACK (UniProt P08559),0.183
9,PDS5B_Q9NTI5_732_YAIHCIHAIFSSK (UniProt Q9NTI5),-0.00231
10,PDIA6_Q15084_193_NVLDSEDVWMVEFYAPWCGHCK (UniProt Q15084),-0.119
11,PATZ1_Q9HBE1_297_EAGILPCGLCGK (UniProt Q9HBE1),0.00899
12,PASK_Q96RG2_759+761_ELFFSDQTDQTSSNCSCATSELR (UniProt Q96RG2),0.0516
13,PBRM1_Q86U86_50_LSNLPTVDPIAVCHELYNTIR (UniProt Q86U86),-0.12
14,PCBP3_P57721_195_QICVVMLESPPK (UniProt P57721),0.012
15,PCCB_P05166_448_HLCGDTNYAWPTAEIAVMGAK (UniProt P05166),0.0602
16,PCGF5_Q86SE9_42_TCIVQHFEDSNDCPR (UniProt Q86SE9),0.0292
17,PDXDC1_Q6P996_573_SCLYVGMASDNVDAAELVETIAATAR (UniProt Q6P996),0.174
18,PDIA6_Q15084_58_EVIQSDSLWLVEFYAPWCGHCQR (UniProt Q15084),-0.159

# In another format: entries from further up
row	Target	probe-labelled cysteine peptide fold change
1	PDHA1_P08559_41_KCDLHR (UniProt P08559)	-0.0144
2	PDS5A_Q29RF7_350_FASHCLMNHPDLAK (UniProt Q29RF7)	-0.055
3	PDS5B_Q9NTI5_943_LPLEYMAICALCAK (UniProt Q9NTI5)	0.336
4	PCNT_O95613_2059_VLEDCQLPK (UniProt O95613)	-0.0791
5	PBX1_P40424_172_YEQACNEFTTHVMNLLR (UniProt P40424)	-0.0704
6	PARP1_P09874_908_SANYCHTSQGDPIGLILLGEVALGNMYELK (UniProt P09874)	-0.146
7	PARP1_P09874_429_ASLCISTK (UniProt P09874)	-0.00943
8	PDHA1_P08559_181_NFYGGNGIVGAQVPLGAGIALACK (UniProt P08559)	0.183
9	PDS5B_Q9NTI5_732_YAIHCIHAIFSSK (UniProt Q9NTI5)	-0.00231
